## Percent effect of library compounds

From ChEMBL document CHEMBL3988442, “University of Dundee, Small-Polar-MMV Screening Library” (2021).

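Growth of Mycobacterium tuberculosis over 3 days (7H9 medium with glucose and tyloxapol); the read-out is not stated. Concentration: 500 µM. The record gives no direction; compounds that gave an IC50 in retests scored well above the rest, so higher reads as more growth inhibition. Of about 18,000 compounds tested this way, about 1,400 (7.9%) reached 50% or more in at least one test.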

The filed quantity is “Percent Effect” (%).
The record does not define 0% and 100%; most values in the screen are far below 50% and negative numbers occur (in some assays of this library far below -100).
This is an unselected part of the compounds tested.

| # | SMILES | Percent Effect |
|---|---|---|
| 1 | `Cc1csc(N2CCN(C)CC2C)n1` (centres unmarked) | 6.533 |
| 2 | `Cn1c(Sc2ccc(C#N)cn2)nnc1C1CC1` | 19.14 |
| 3 | `O=C(NC(C1CC1)C1CC1)N1CCC2(CC1)OCCO2` | -18.25 |
| 4 | `CC(C)Oc1cccc(CN2CCC(C(N)=O)CC2)c1` | -16.69 |
| 5 | `CCn1ccc(NC(=O)NCC(C)C)n1` | 18.55 |
| 6 | `Cc1nccn1CCNC(=O)OC(C)(C)C` | -2.621 |
| 7 | `COCCN1C(=O)C[C@H](CN)[C@H]1c1cnn(C)c1` | 12.61 |
| 8 | `CNC(=O)c1cccc(CN(C)CC(O)COC)c1` (centres unmarked) | 14.06 |
| 9 | `CCn1ccc(=O)[nH]c1=O` | 3.229 |
| 10 | `COCCn1ccnc1C1CCCN(C(=O)CSC)C1` (centres unmarked) | 8.934 |
| 11 | `COc1ccsc1C(=O)Nc1nc(C)nn1C` | 4.987 |
| 12 | `CN(Cc1cccnc1)Cc1cc(C#N)cs1` | 48.28 |
| 13 | `CC(C)C(C)(CO)NC(=O)CN(C)C1CC1` (centres unmarked) | 2.956 |
| 14 | `CCN(CC)C(=O)CCC1CCNCC1` | -0.8825 |
| 15 | `NCC(CO)Cc1ccc(Cl)cc1` (centres unmarked) | 48.45 |
| 16 | `CN1CCN(C2CCCCN(C(=O)C(C)(C)C)C2)CC1` (centres unmarked) | 5.39 |
| 17 | `O=C(NCC1(O)CCCNC1)c1ccc(F)c(O)c1` (centres unmarked) | 7.532 |
| 18 | `Cn1c(SCCN2CCOCC2)nc2ccsc2c1=O` | 30.17 |
| 19 | `CCc1ccc(CN2CCN(C(=O)C(C)N)CC2)s1` (centres unmarked) | 12.46 |
| 20 | `O=C(COc1ccccc1)NCCn1ccnc1` | 13.25 |
| 21 | `Cc1noc(C)c1CN1CCCC(O)C1` (centres unmarked) | 1.739 |
| 22 | `Fc1ccc2nc(N3CCCNCC3)oc2c1F` | 77.16 |
| 23 | `CC(NS(C)(=O)=O)C(=O)N1CCc2ccc(Br)cc21` (centres unmarked) | 43.57 |
| 24 | `CCOC(=O)CCNC(=O)N1CCN(CC(C)C)CC1` | 12.44 |
| 25 | `CCN(CC(C)C#N)Cn1nnc2ccccc2c1=O` (centres unmarked) | 14.38 |
| 26 | `CC(C)(CNC1CCN(c2ccccn2)C1)S(C)(=O)=O` (centres unmarked) | 10.49 |
| 27 | `Cc1nc(CN)ccc1C(C)O` (centres unmarked) | 12.48 |
| 28 | `O=C(NCC(F)(F)F)C1CCCN(Cc2ccon2)C1` (centres unmarked) | 14.4 |
| 29 | `Cc1cc[nH]c(=O)c1` | 1.899 |
| 30 | `Cc1cccc(C(=O)NCC2(O)CCC2)c1O` | 21 |
| 31 | `NCC(=O)NCCN1CCCCC1` | -0.1472 |
| 32 | `CC(CO)(CO)NC(=O)c1cnc(-c2cccs2)s1` | 50.21 |
| 33 | `CCCc1nc(C(=O)NCCS(=O)(=O)N(C)C)cs1` | 28.17 |
| 34 | `COc1ccccc1C(=O)NCC(=O)NCC(F)(F)F` | -6.895 |
| 35 | `O=C(c1cc(C2CC2)on1)N1CCCN(C2CC2)CC1` | 55.5 |
| 36 | `COC(=O)c1ccn2cncc2c1` | -13.24 |
| 37 | `CC(C)(C)S(=O)(=O)CCNC(=O)CCc1ccccc1` | 22.65 |
| 38 | `Cc1c(C(=O)NCc2cccnc2N(C)C)cnn1C` | 12.78 |
| 39 | `COC(C(=O)Nc1nccc(C)n1)C1CC1` (centres unmarked) | 1.222 |
| 40 | `CC1(C)NC(=O)CC1c1ccccc1` (centres unmarked) | 15.47 |
| 41 | `CCOC(=O)Cc1nc2nc(C)cc(C)n2n1` | 7.134 |
| 42 | `OC[C@@H]1CNC[C@H]1c1nc(-c2ccncc2)no1` | 3.229 |
| 43 | `NCC(=O)N1CCCCC1` | 3.771 |
| 44 | `CCN(CC)CC(=O)N1CCN(C(C)C#N)CC1` (centres unmarked) | -7.206 |
| 45 | `CCN(CC(=O)NC)S(=O)(=O)N1CCOCC1` | -2.095 |
| 46 | `O=C(NCCCn1ccnc1)c1cn2ccsc2n1` | 11.56 |
| 47 | `CSCC(=O)NC1CCCC1` | 12.53 |
| 48 | `CC(C)=CCO[C@H]1CCOC[C@H]1NC(=O)c1cnc[nH]1` | -2.511 |
| 49 | `O=C(CN1CCOC(c2ccccc2)C1)NC1CC1` (centres unmarked) | 39.5 |
| 50 | `CC(=O)N1CCN(c2nccn2C)CC1` | -0.3257 |

4 of the entries, repeated:

SMILES,Percent Effect
CNC(=O)c1cccc(CN(C)CC(O)COC)c1 (centres unmarked),14.06
CCN(CC)C(=O)CCC1CCNCC1,-0.8825
O=C(NC(C1CC1)C1CC1)N1CCC2(CC1)OCCO2,-18.25
CCn1ccc(NC(=O)NCC(C)C)n1,18.55